From article PMC11417767
Results are given in words; binding and its absence hold for the method and conditions named. In cells and extracts the contact can be indirect. Some results given as binding are weak or reduced against the parent protein; the word gives no strength.

Molecular target: T1, Fas-apoptotic inhibitory molecule 2 (FAIM2), rat retina (rat (endogenous in rat retina)) (UniProt O88407)
T1 sequence: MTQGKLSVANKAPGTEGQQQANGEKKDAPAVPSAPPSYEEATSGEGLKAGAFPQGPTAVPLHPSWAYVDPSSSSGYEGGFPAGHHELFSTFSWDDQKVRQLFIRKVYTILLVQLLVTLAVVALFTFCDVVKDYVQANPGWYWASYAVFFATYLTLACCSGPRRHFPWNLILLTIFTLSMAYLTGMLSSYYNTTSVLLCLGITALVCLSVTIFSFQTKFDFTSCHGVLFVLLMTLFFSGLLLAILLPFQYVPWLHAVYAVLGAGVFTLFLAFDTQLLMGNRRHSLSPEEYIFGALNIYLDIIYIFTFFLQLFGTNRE
Experiment: co-IP; FAIM2 antibody (OriGene) on Dynabeads protein G, 500 μg of lysate of attached or detached rat retina, 4 °C overnight; immunoblot for αA- or αB-crystallin

binding: binds
B1: αB-crystallin (HSPB5), rat retina (protein, UniProt P23928 1-175)
chain: MDIAIHHPWIRRPFFPFHSPSRLFDQFFGEHLLESDLFSTATSLSPFYLRPPSFLRAPSWIDTGLSEMRMEKDRFSVNLDVKHFSPEELKVKVLGDVIEVHGKHEERQDEHGFISREFHRKYRIPADVDPLTITSSLSSDGVLTVNGPRKQASGPERTIPITREEKPAVTAAPKK
